Assay results taken from US20090240038A1.
Residue numbers refer to the chain shown, from its start. No constants are given. Whether binding was seen depends on the method and setting. Some entries that bind do so weakly or less than the wild type.

Experiments:
[1] = target: EGFRvIII-Rabbit Fc fusion protein (human; rabbit) (UniProt P00533); experiment: Western blot, EGFRvIII rabbit Fc fusion protein, reduced
[2] = target: T1, EGFrVIII N-terminal sequence on SPOTs peptide array (nine overlapping 12-mers, residues 1-20) (human); experiment: SPOTs peptide array, 1 µg/ml antibody, HRP secondary, ECL
T1 sequence (peptide, synthesised as spots on polypropylene membrane): LEEKKGNYVVTDHGSCVRA

[3] = target: EGFRvIII-Rabbit Fc fusion protein (human; rabbit) (UniProt P00533); experiment: Western blots and epitope mapping; member inferred (nine mapped mAbs without H10 and 211)
[4] = target: EGFRvIII-Rabbit Fc fusion protein (human; rabbit) (UniProt P00533); experiment: Western blot, EGFRvIII rabbit Fc fusion protein, native
[5] = target: EGFRvIII-Rabbit Fc fusion protein (human; rabbit) (UniProt P00533); experiment: Western blot of purified EGFRvIII

Measured: binding

B1: antibody 139 (antibody, human IgG1, V domains shown)
VH: EVQVLESGGGLVQPGGSLRLSCAASGFTFSSYAMSWVRQAPGKGLEWVSAISGSGGSTNYADSVKGRFTISRDNSKNTLYLQMNSLRAEDTAVYYCAGSSGWSEYWGQGTLVTVSS
VL: DIQMTQSPSSLSASVGDRVTITCRASQGIRNNLAWYQQKPGKAPKRLIYAASNLQSGVPSRFTGSGSGTEFTLIVSSLQPEDFATYYCLQHHSYPLTSGGGTKVEIK
binds: [1] | [2] | [3]

B2: antibody 250 (antibody, human IgG1, V domains shown)
VH: B1 VH with V2G, V4L, L11W, G16E, M83V, A88V
VL: DIQMTQSPSSLSASVGDSVTITCRTSQGIRKNLGWYQQKPGKAPKRLIYAASSLQSGVPSRFSGSGSGTEFTLTISRLQPEDFATYYCLQHHSYPLTFGGGTRVEIR
not listed: [5]
binds: all other assays above

B3: antibody 095 (antibody, human IgG1, V domains shown)
VH: QVQLQESGPFLVKPSQTLSLTCTVSGGSISSGGYYWSWIRQHPGKGLEWIGFIYYRGNTYYNPSLKSRVTISVDTSKNQFSLKLSSVTAADTAVYYCARDGYCSRTGCYGGWFDPWGQGTLVTVSP
VL: DIVMTQTPLSSPVTLGQPASISCRSSQSLIHTDGNIYLSWLQQRPGQPPRLLIYKISNRFSGVPDRFSGSGAGTDFTLKISRVEAEDVGVYYCMQGTQFPITFGQGTRLEIK
not listed: [5]
binds: all other assays above

B4: antibody 211 (antibody, human IgG1, V domains shown)
VH: QVQLVESGGGVVQPGRSLRLSCVASGFTLSSYGMHWVRQAPGKGLEWVAVTSYDGSKKDYADSAKGRFTISRDNSKNTLYLQMNSLRAEDTAVYYCVSEGYCSSSSCYKYYYYGMDVWGQGTTVTVSS
VL: DIVMTQSPLSLPVTPGEPASISCRSSQSLLYRNGNNYLDWYLQRPGQSPQLLIYLGSNRASGVPDRFSGSGSGTDFTLKISRVEAEDVGVYYCMQALQTPRTFGQGTKVEIK
not listed: [3]
binds: all other assays above
